From the supplement of paper PMC3334620
In all, about 33,000 sequences were measured (“E-score (-0.5 to 0.5)”: median about -8e-05, highest 2% from about 0.23 on). The list shows a part of the results.

Biological target: T1, Nrg2 (UniProt P38082)
T1 sequence: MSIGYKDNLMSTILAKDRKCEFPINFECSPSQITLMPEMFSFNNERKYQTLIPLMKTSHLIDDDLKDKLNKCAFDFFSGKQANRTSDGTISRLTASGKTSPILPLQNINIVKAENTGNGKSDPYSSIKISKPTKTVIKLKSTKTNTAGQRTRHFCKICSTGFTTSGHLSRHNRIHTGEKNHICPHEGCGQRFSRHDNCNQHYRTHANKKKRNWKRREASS
Experiment: PBM E-score (8-mer binding enrichment) (E-score (-0.5 to 0.5)); higher = stronger / more preferred TF binding
Settings: protein concentration: 100 nM; construct: GST-full length
Method in brief: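 Bound GST-tagged yeast transcription factors, applied at about 100-200 nM to double-stranded universal all-10-mer Agilent arrays, were detected with fluorescent anti-GST. Scans were normalised with masliner. A modified Wilcoxon-Mann-Whitney statistic, the E-score, was assigned to each ungapped eight-base word pooled with its reverse complement by the Universal PBM Analysis Suite.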

| Sequence | PBM E-score |
| --- | --- |
| CGAAAACC | 0.065 |
| CGTTAACC | 0.0372 |
| AATATTAT | 0.219 |
| TCTAGGAA | -0.126 |
| GAGAAAGA | 0.105 |
| CTAAGTCA | -0.11 |
| GGTTGGCA | -0.0674 |
| CATTCGTC | 0.138 |
| AATTCGCC | 0.167 |
| GCGGGCAA | 0.0596 |
| ATAGCTGC | 0.085 |
| CCCGAGAG | -0.356 |
| CCCAACTA | 0.174 |
| CTACGTGA | -0.172 |
| ATGATCCA | -0.114 |
| ACTACGTA | 0.0132 |
| CCCATCTA | 0.103 |
| ACACCATA | -0.0575 |
| GCGTTTGA | -0.0923 |
| AATATTGT | 0.168 |
| AGCATATC | 0.0744 |
| TAACCATA | -0.0752 |
| AATCTAAC | 0.0101 |
| AGCGCTAC | -0.0916 |
| CTGCCATA | 0.139 |

| Sequence | PBM E-score |
| --- | --- |
| AAAGAGGG | -0.136 |
| TGGATCCA | -0.0711 |
| GGCGAAAC | 0.0468 |
| GTAGATGA | 0.0203 |
| AGTGTTAT | 0.0152 |
| AATCTTAG | 0.032 |
| ATTTGCGC | -0.00718 |
| GATCCCAC | 0.218 |
| CTCTACTA | 0.0431 |
| ATACAGGG | 0.274 |
| CAGTCTCG | -0.205 |
| ATACGCGA | 0.0467 |
| CCGATGCA | 0.0174 |
| AATACGAT | 0.0129 |
| GTTGGCGA | -0.00348 |
| CCGGATCA | 0.0095 |
| GATAGCGA | 0.0325 |
| CCTGTGCC | 0.0181 |
| CTGGTCCA | 0.00447 |
| ATACCGCA | 0.00689 |
| CTCAGGCA | 0.117 |
| AGAAGAAG | -0.043 |
| CCAGCTAG | 0.0216 |
| GCCGCAAC | 0.192 |
| ATACAGAG | -0.113 |

A second format for part of the listing above.
Sequence,PBM E-score
GTTGGCGA,-0.00348
ATACAGAG,-0.113

Quoted at random: 3 entries already listed.

| Sequence | PBM E-score |
| --- | --- |
| AATCTAAC | 0.0101 |
| ATACAGAG | -0.113 |
| CAGTCTCG | -0.205 |

The results go on:

| Sequence | PBM E-score |
| --- | --- |
| GGTGCCCA | -0.0202 |
| ATCAACGC | -0.0247 |
| AGTACGTG | -0.0446 |
| AAAATCCC | -0.0572 |
| GCTGACAA | 0.0114 |
| CTTGCAAC | 0.124 |
| AAGCCTGA | -0.148 |
| GTACTAGA | -0.00429 |
| ACTTACAG | -0.0568 |
| CGCGGTCA | 0.0772 |
| GAACCTAC | -0.131 |
| ACATCGGG | -0.0174 |
| ACTTAGTA | 0.0817 |
| GCCCGAAC | 0.0691 |
| ACTCCGTC | -0.041 |
| AAGTGGGA | 0.173 |
| CTCTCGGC | 0.00764 |
| CCTCAACC | -0.234 |
| AGCTAGCC | -0.0348 |
| GGAAGGAA | -0.00882 |
| AGTCCCTC | -0.0587 |
| AAGGTATG | 0.0619 |
| ATTCGAGA | -0.0181 |
| ACTTGTGA | 0.0543 |
| ACCCACCC | 0.243 |

Copied from the list.
GTTGGCGA – PBM E-score: -0.00348
ACCCACCC – PBM E-score: 0.243
CCCATCTA – PBM E-score: 0.103
GATCCCAC – PBM E-score: 0.218
AATCTTAG – PBM E-score: 0.032
AATTCGCC – PBM E-score: 0.167

Going on with the list:

| Sequence | PBM E-score |
| --- | --- |
| GACATCAA | 0.15 |
| CTCCCGCA | 0.0284 |
| GGTAGTAC | 0.031 |
| AACACAAG | -0.0753 |
| TGAAAACA | -0.00213 |
| AGAAAGCA | 0.168 |
| CCACTCCC | -0.128 |
| ATCTATAC | 0.0281 |
| AACACAGC | 0.165 |
| CGGCTTGC | 0.237 |
| GGTTGGGA | -0.0747 |
| CATATCGA | 0.118 |
| CAGGCGGC | -0.16 |
| CTCAACAC | 0.117 |
| ACACTTAT | -0.00232 |
| CACTTCAG | -0.0458 |
| AATCCTCT | -0.15 |
| ACCGTACT | 0.0735 |
| ACCGTTGA | -0.221 |
| CTGACCCC | -0.124 |
| ACTACTGA | -0.00181 |
| GAAGGTGA | -0.0461 |
| AGTGCTTC | -0.111 |
| AAAACTTC | -0.046 |
| GGGATGAA | -0.0477 |

| Sequence | PBM E-score |
| --- | --- |
| AGCATTAC | -0.183 |
| AAAGTATC | 0.0914 |
| ACTGCCGG | -0.0445 |
| ATCGCCTC | 0.204 |
| ATAAACCA | -0.0416 |
| AATCTCCG | 0.0391 |
| TGCCTGAA | -0.223 |
| CTCCGATC | -0.23 |
| ACTCACAG | 0.00097 |
| CTCGGCCC | -0.116 |
| AGGAATAG | -0.0381 |
| GCTGGAAA | 0.018 |
| CATTTCAA | 0.153 |
| GAGGCATA | 0.123 |
| CGCGAACG | -0.066 |
| AGCTGACC | -0.0748 |
| AAACGATC | 0.00138 |
| GAATAGGC | 0.0276 |
| CGGCCTCC | -0.144 |
| ACCTACGC | -0.0522 |
| AAGGCCGA | 0.137 |
| AGTAACAT | 0.179 |
| AGACGTAG | 0.032 |
| ATGGACGC | 0.0601 |
| AGGGCACA | 0.138 |

| Sequence | PBM E-score |
| --- | --- |
| GATCCTCA | 0.0679 |
| CAGTCTCA | 0.0132 |
| ATGCCAGC | -0.157 |
| GGGATCCC | 0.0911 |
| AGCATGAT | -0.106 |
| ATCTCAAA | 0.14 |
| GCGACAAA | 0.192 |
| ACACTGAA | 0.171 |
| CAAGACTA | -0.066 |
| CATGGGAG | -0.0167 |
| TGTGGCAA | 0.0757 |
| GACTCCAA | -0.258 |
| GAACTGCA | 0.0913 |
| GATATCAA | 0.122 |
| GCTACAGA | -0.251 |
| CCTGACCA | 0.142 |
| CGCGGTAG | -0.0358 |
| CAGACTTA | -0.179 |
| AGATTGAA | 0.0428 |
| AACATACC | -0.037 |
| TCTCCGAA | -0.101 |
| ACAGGATA | -0.0268 |
| TCATACCA | -0.00103 |
| GCGGTAAA | -0.0772 |
| ACGCTCCA | -0.0774 |

| Sequence | PBM E-score |
| --- | --- |
| ATACCTCC | -0.312 |
| ACCTCCCC | -0.174 |
| CCCGCCCG | 0.0802 |
| ATCTGATA | -0.115 |
| ATTGTCTA | 0.223 |
| GCAATCGC | -0.152 |
| AATGGCTC | 0.0798 |
| CGTAGGCA | -0.227 |
| CTAATTGA | 0.0446 |
| CCACAATA | 0.184 |
| ATATTAAC | 0.176 |
| ATAACAAC | 0.175 |
| GCTCGTTA | -0.0636 |
| CAAACGTC | -0.136 |
| CCTAACTC | -0.0633 |
| CTCGGACA | -0.0517 |
| CTCTGCCA | -0.158 |
| GCATACCC | 0.125 |
| AGTTTAAT | 0.0955 |
| AATCTAAG | 0.00034 |
| TCTTGGCA | -0.00105 |
| AAACCGCT | -0.107 |
